PubChem BioAssay AID248 (DTP/NCI, 2004)
The list is a part of this screen's results and no random one: it gathers tests that were run many times, whatever their T/C, doses with no T/C, and many T/C values between a quarter and a half above the control. Other doses and runs of a compound stand elsewhere. T/C: endpoint of the treated group in % of that of the vehicle group. Some entries give survivors of the animals treated and no T/C: the source holds a T/C of zero for them, seemingly a mark for toxic or unscored doses. Some doses without a T/C left all or most animals alive at the check, yet need not have been tolerated: the source hardly ever lists a survival T/C far under the control, and the zero likely stands for such cases as well. Survivors were counted at the toxicity check, usually on the fifth day, unless a day is given; later deaths do not show. Schedules are NCI's codes, read here as Q, the interval in days (D) or hours (H), X, the number of doses. Some schedules carry Z or #; the key to these is not given. Some structures stand for samples that the source files as different forms (salt, stereo form or complex); doses refer to the form tested. Some entries hold several experiments; their values stand side by side, smallest first. For survival time, the PubChem record calls one and a half times the control and up active, and a quarter to a half above the control has no call in these data; cut-offs in other NCI protocols can differ. Some T/C values are followed by the survivors on the day toxicity was checked, most often the fifth; without a count, all were alive then.

Test system: L1210 leukemia ip in BDF1 mice, survival T/C
Test: NCI In Vivo Anticancer Drug Screen. Data for tumor model L1210 Leukemia (intraperitoneal) in B6D2F1 (BDF1) mice
Conditions: T/C endpoint: mean survival time, higher T/C = longer survival
[1] = dose: 150.0 mg/kg/injection, schedule: Q01DX009 (ip), vehicle: saline
[2] = dose: 300.0 mg/kg/injection, schedule: Q01DX009 (ip), vehicle: saline
[3] = dose: 100.0 mg/kg/injection, schedule: Q01DX009 (ip), vehicle: saline
[4] = dose: 100.0 mg/kg/injection, schedule: Q04DX003 (ip), vehicle: Klucel (hydroxypropylcellulose) (HPC)
[5] = dose: 200.0 mg/kg/injection, schedule: Q04DX003 (ip), vehicle: Klucel (hydroxypropylcellulose) (HPC)
[6] = dose: 400.0 mg/kg/injection, schedule: Q04DX003 (ip), vehicle: Klucel (hydroxypropylcellulose) (HPC)
[7] = dose: 200.0 mg/kg/injection, schedule: Q01DX009 (ip), vehicle: saline
[8] = dose: 400.0 mg/kg/injection, schedule: Q01DX009 (ip), vehicle: Klucel (hydroxypropylcellulose) (HPC)
[9] = dose: 400.0 mg/kg/injection, schedule: Q04DX003 (ip), vehicle: saline

SMILES: CCN(CC)CCNc1ccc(C)c2sc3ccccc3c(=O)c12 (tested in a mixture with another compound)
- survivor count (dose: 35.0 mg/kg/injection, schedule: Q01DX009 (ip), vehicle: saline): 6 of 6
- T/C (dose: 50.0 mg/kg/injection, schedule: Q01DX009 (ip), vehicle: carboxymethylcellulose (CMC)): 132 % of control
- T/C (dose: 60.0 mg/kg/injection, schedule: Q01DX015 (ip), vehicle: saline): 128, 138, 148 % of control
- survivor count (dose: 75.0 mg/kg/injection, schedule: Q01DX009 (ip), vehicle: saline): 5 of 6
- T/C (dose: 89.0 mg/kg/injection, schedule: Q01DX009 (ip), vehicle: carboxymethylcellulose (CMC)): 148 % of control
- T/C (dose: 89.0 mg/kg/injection, schedule: Q01DX015 (ip), vehicle: carboxymethylcellulose (CMC)): 125 [4 of 6 alive] and 135 % of control
- T/C (dose: 89.0 mg/kg/injection, schedule: Q01DX015 (ip), vehicle: saline): 143 % of control
- T/C (dose: 133.0 mg/kg/injection, schedule: Q01DX015 (ip), vehicle: carboxymethylcellulose (CMC)): 138 % of control
- T/C [1]: 138 % of control
- survivor count [1]: 6 of 6
- survivor count (dose: 200.0 mg/kg/injection, schedule: Q01DX009 (ip), vehicle: carboxymethylcellulose (CMC)): 6 of 6
- T/C (dose: 200.0 mg/kg/injection, schedule: Q01DX015 (ip), vehicle: carboxymethylcellulose (CMC)): 145 % of control
- survivor count (dose: 200.0 mg/kg/injection, schedule: Q01DX015 (ip), vehicle: saline): 5 of 6
- survivor count (dose: 300.0 mg/kg/injection, schedule: Q01DX009 (ip), vehicle: carboxymethylcellulose (CMC)): 6 of 6
- T/C [2]: 127 % of control [4 of 6 alive]
- survivor count [2]: 6 of 6
- survivor count (dose: 300.0 mg/kg/injection, schedule: Q01DX015 (ip), vehicle: saline): 4 of 6
- survivor count (dose: 600.0 mg/kg/injection, schedule: Q01DX001 (ip), vehicle: saline): 3 of 6

SMILES: CCCCCCCCCCCCOc1ccc(/C(=N\N=C(N)N)c2ccccc2)c(O)c1
- survivor count (dose: 60.0 mg/kg/injection, schedule: Q01DX Z (ip), vehicle: saline): 6 of 6

SMILES: CCC[CH2][Sn]1([CH2]CCC)[O]OC(C)(CC)[O]1 (stereo unspecified)
- survivor count (dose: 6.25 mg/kg/injection, schedule: Q01DX009 (ip), vehicle: Klucel (hydroxypropylcellulose) (HPC)): 0 of 6
- survivor count (dose: 12.5 mg/kg/injection, schedule: Q01DX009 (ip), vehicle: Klucel (hydroxypropylcellulose) (HPC)): 0 of 6
- survivor count (dose: 12.5 mg/kg/injection, schedule: Q01DX009 (ip), vehicle: saline sonified): 4 of 6
- survivor count (dose: 25.0 mg/kg/injection, schedule: Q01DX009 (ip), vehicle: Klucel (hydroxypropylcellulose) (HPC)): 0 of 6
- survivor count (dose: 25.0 mg/kg/injection, schedule: Q01DX009 (ip), vehicle: saline sonified): 0 of 6

SMILES: CC1(C)N=C(N)N=C(N)N1c1cccc(C(=O)Nc2ccc(S(=O)(=O)F)cc2)c1
- survivor count [3]: 2 of 6
- survivor count (dose: 500.0 mg/kg/injection, schedule: Q01DX009 (ip), vehicle: saline): 0 of 6

SMILES: ClC1C2c3ccccc3C(C1Cl)[n+]1ccccc12 (stereo unspecified)
- survivor count (dose: 55.0 mg/kg/injection, schedule: Q01DX009 (ip), vehicle: Klucel (hydroxypropylcellulose) (HPC)): 4 of 6
- survivor count (dose: 80.0 mg/kg/injection, schedule: Q01DX009 (ip), vehicle: Klucel (hydroxypropylcellulose) (HPC)): 0 of 6
- survivor count [4]: 2 of 6
- survivor count [5]: 0 of 6
- survivor count [6]: 1 of 6

SMILES: Oc1ccccc1C1CC2CCC1C2 (stereo unspecified)
- survivor count (dose: 200.0 mg/kg/injection, schedule: Q01DX009 (ip), vehicle: saline with Tween-80): 5 of 6
- survivor count (dose: 400.0 mg/kg/injection, schedule: Q01DX009 (ip), vehicle: saline with Tween-80): 0 of 6

SMILES: CC(=Nc1c2c(nc3ccccc13)CCCC2)N(C)C
- survivor count [4]: 2 of 6
- survivor count [5]: 0 of 6
- survivor count [6]: 0 of 6

SMILES: Cc1cccc(OCC(O)CN2CCCCC2)c1 (stereo unspecified)
- survivor count [3]: 4 of 6
- survivor count [7]: 0 of 3 and 0 of 6

SMILES: CCCCCCCc1ccc(C(C)=O)cc1
- T/C (dose: 200.0 mg/kg/injection, schedule: Q04DX003 (ip), vehicle: saline with Tween-80): 127 % of control

SMILES: Nc1nc(-c2ccccc2N=NN2CCN(N=Nc3ccccc3-c3nc(N)c4ccccc4n3)CC2)nc2ccccc12
- survivor count [6]: 3 of 6

SMILES: O=NN(CCCl)C(=O)Nc1c[nH]c(=O)[nH]c1=O
- T/C (dose: 5.0 mg/kg/injection, schedule: Q01DX001 (ip), vehicle: carboxymethylcellulose (CMC)): 137 % of control
- T/C (dose: 9.0 mg/kg/injection, schedule: Q01DX Z (ip), vehicle: carboxymethylcellulose (CMC)): 145 % of control
- T/C (dose: 10.0 mg/kg/injection, schedule: Q01DX001 (ip), vehicle: carboxymethylcellulose (CMC)): 139 % of control
- survivor count (dose: 37.0 mg/kg/injection, schedule: Q01DX Z (ip), vehicle: carboxymethylcellulose (CMC)): 4 of 6
- survivor count (dose: 50.0 mg/kg/injection, schedule: Q01DX Z (ip), vehicle: carboxymethylcellulose (CMC)): 6 of 6
- survivor count (dose: 75.0 mg/kg/injection, schedule: Q01DX Z (ip), vehicle: carboxymethylcellulose (CMC)): 3 of 6
- T/C (dose: 100.0 mg/kg/injection, schedule: Q01DX001 (ip), vehicle: carboxymethylcellulose (CMC)): 145 % of control
- survivor count (dose: 100.0 mg/kg/injection, schedule: Q01DX Z (ip), vehicle: carboxymethylcellulose (CMC)): 0 of 6
- survivor count (dose: 150.0 mg/kg/injection, schedule: Q01DX Z (ip), vehicle: carboxymethylcellulose (CMC)): 1 of 6
- survivor count (dose: 250.0 mg/kg/injection, schedule: Q01DX001 (ip), vehicle: carboxymethylcellulose (CMC)): 6 of 6
- survivor count (dose: 375.0 mg/kg/injection, schedule: Q01DX001 (ip), vehicle: carboxymethylcellulose (CMC)): 4 of 6
- survivor count (dose: 500.0 mg/kg/injection, schedule: Q01DX001 (ip), vehicle: carboxymethylcellulose (CMC)): 1 of 6

SMILES: Cc1cccc(C)c1NC(=O)Oc1ccccc1C(N)=O
- survivor count [8]: 2 of 6

SMILES: CCOP(=O)(OCC)c1cccc(Cl)c1
- survivor count (dose: 150.0 mg/kg/injection, schedule: Q01DX001 (ip), vehicle: saline): 0 of 6
- survivor count (dose: 300.0 mg/kg/injection, schedule: Q01DX001 (ip), vehicle: saline): 0 of 6

SMILES: COc1ccc(CC[N+]2=Cc3cc(OC)c(OC)cc3CC2)cc1OC
- survivor count [7]: 2 of 6
- survivor count [9]: 1 of 6

SMILES: CC[CH](C)[Hg][c]1cccc2ccccc12 (stereo unspecified)
- survivor count (dose: 200.0 mg/kg/injection, schedule: Q01DX009 (ip), vehicle: Klucel (hydroxypropylcellulose) (HPC)): 6 of 6
- survivor count [8]: 6 of 6

SMILES: O=c1[nH]c(=O)n(C2CC(O)C(CO)O2)cc1Br (stereo unspecified)
- T/C (dose: 1200.0 mg/kg/injection, schedule: Q01DX009 (ip), vehicle: carboxymethylcellulose (CMC)): 135 % of control

SMILES: COC(=O)C[CH2][Pb]([c]1ccccc1)([c]1ccccc1)[c]1ccccc1
- survivor count (dose: 400.0 mg/kg/injection, schedule: Q04DX002 (ip), vehicle: saline with Tween-80): 2 of 3

SMILES: S=C(Nc1ccccc1)NC1CCCCCC1
- survivor count (dose: 100.0 mg/kg/injection, schedule: Q01DX009 (ip), vehicle: saline with Tween-80): 6 of 6
- survivor count [9]: 3 of 6

SMILES: O=C1CC2(CCCCC2)CO1
- survivor count (dose: 25.0 mg/kg/injection, schedule: Q04DX003 (ip), vehicle: saline): 1 of 4
- survivor count (dose: 50.0 mg/kg/injection, schedule: Q04DX003 (ip), vehicle: saline): 0 of 4
- survivor count (dose: 100.0 mg/kg/injection, schedule: Q04DX003 (ip), vehicle: saline): 0 of 4
- survivor count (dose: 200.0 mg/kg/injection, schedule: Q04DX003 (ip), vehicle: saline): 0 of 4
- survivor count [9]: 0 of 4

SMILES: O=CNc1cc2c3c(c1)CCCN3CCC2
- survivor count [3]: 3 of 6
- survivor count (dose: 200.0 mg/kg/injection, schedule: Q01DX001 (ip), vehicle: saline): 1 of 6
- survivor count (dose: 400.0 mg/kg/injection, schedule: Q01DX001 (ip), vehicle: saline): 3 of 6
